One substance from PMC9763329, “Targeting the transcription factor HES1 by L-menthol restores protein phosphatase 6 in keratinocytes in models of psoriasis” (Nature Communications, 2022) can be followed below.

The chains behind the UniProt entries cited, without tags or fusion partners.
UniProt Q9UNE7: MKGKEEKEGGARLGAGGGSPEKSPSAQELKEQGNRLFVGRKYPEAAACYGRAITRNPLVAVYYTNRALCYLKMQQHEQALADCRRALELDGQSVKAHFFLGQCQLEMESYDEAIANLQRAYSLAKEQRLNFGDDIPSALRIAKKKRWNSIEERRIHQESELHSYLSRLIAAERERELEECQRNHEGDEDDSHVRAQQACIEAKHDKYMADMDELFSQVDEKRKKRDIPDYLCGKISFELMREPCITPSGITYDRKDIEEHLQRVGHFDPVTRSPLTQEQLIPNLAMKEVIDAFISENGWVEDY

In the assay the target is T1, Protein phosphatase 6 (PP6), endogenous in HaCaT cells (human (endogenous in HaCaT)) (UniProt O00743).
T1 sequence: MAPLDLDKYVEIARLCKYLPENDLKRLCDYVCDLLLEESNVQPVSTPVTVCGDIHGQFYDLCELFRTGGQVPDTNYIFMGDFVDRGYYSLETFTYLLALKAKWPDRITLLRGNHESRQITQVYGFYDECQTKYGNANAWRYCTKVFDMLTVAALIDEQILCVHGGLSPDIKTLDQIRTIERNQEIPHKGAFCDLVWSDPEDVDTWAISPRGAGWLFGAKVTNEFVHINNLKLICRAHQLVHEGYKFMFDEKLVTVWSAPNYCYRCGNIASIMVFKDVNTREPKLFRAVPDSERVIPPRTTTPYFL
Description: co-IP; PP6 immunoprecipitated (anti-PPP6C) from HaCaT cells transfected with an HA-Ubiquitin plasmid and scramble siRNA or IGBP1 siRNA, or empty vector or IGBP1 overexpression plasmid; immunoblot for CHIP. For orientation: Immunoblotting shows a protein as a band on a membrane.

Results are given in words; binding and its absence hold for the method and conditions named. In cells and extracts the contact can be indirect. Some binding calls cover weakened binding; strength is not graded here.

For “CHIP (E3 ubiquitin ligase) (from UniProt Q9UNE7 1-303) (enzyme)”, the binding result is “binds”.
